For some assays here: At least one structure is not confirmed: it was looked up by name or label, or the drawing left a doubt. Some results were stated once for a whole list of compounds, not compound by compound.
Tests used:
GBM-ECs = assay: Tube formation assay on Matrigel; assay type: cell-based, human; conditions: 48 h, phase-contrast microscopy
Experimental: GBM-ECs were incubated at 37° C., 5% C02, 5% 02. After 48 h, tube-like structure formation was evaluated by phase-contrast microscopy.

N9 microglia cells = assay: Microglia migration (chemotaxis, transwell); assay type: cell-based, murine; conditions: LPS 3 μg/mL in lower compartment, 24 hours
Experimental: The migration testing or “chemotaxis assay” was carried out to highlight the migratory capacity of N9, a phenomenon that is observed in response to an inflammatory stimulus. For this purpose, transwell multiwell plates (24-well) were used and equipped with inserts with a polycarbonate membrane. The holes in the membrane of a diameter of 8 μM are capable of retaining the cells and the culture medium, but allow the active transmigration of cells through the membrane to reach the lower well. The N9 treated were seeded in the top of the insert. […] After 24 hours, the inserts were removed and the cells present in the lower compartment were stained with calcein AM. The visualization of the cells was made by fluorescence microscopy with a 4× objective and the images were analyzed with ImageJ software (FIG. 16).

S-ECs = assay: Tube formation assay on Matrigel; assay type: cell-based, human; conditions: 48 h
Experimental: S-ECs were incubated at 37° C., 5% C02, 5% 02. After 48 h, tube-like structure formation was evaluated by phase-contrast microscopy. […] Data are expressed as the mean±standard deviation of at least 3 experiments in triplicate. * P<0.05 versus CTR for treatments tested.

[1] = tested on: synovial endothelial cells (S-ECs) from haemophilic patient; assay: Cell viability of synovial endothelial cells; assay type: cell-based, human; conditions: 48 hours of culture

Structure (SMILES) | formation of tubular-like structures (GBM-ECs) | migration of N9 towards LPS (N9 microglia cells) | formation of tubular-like structures (S-ECs) | viability [1]
Cn1nnc2c(C(N)=O)ncn2c1=O [TMZ, Temozolomide, reference compound] | did not show such a significant effect | – | – | –
CCCCCCCCc1ccc(CCC(N)(CO)CO)cc1 [FTY720, Fingolimod, reference compound] | did not show such a significant effect | positive effects | did not show such a significant effect | higher than 88%

Source: patent US20240294624A1, “ANTI-ERYTHROPOIETIN ANTIBODY” (ANDREMACON S.R.L., priority 2021, published 2024)
